Results are given in words; binding and its absence hold for the method and conditions named. Binding can be weak; no strength is given.
Biological target: T1, CXCL4/CTF, synthetic peptide encompassing amino-acid sequence 47-70 of CXCL4 (human)
T1 sequence (peptide): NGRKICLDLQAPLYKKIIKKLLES
Assay: ELISA; solid-phase ligand-binding assay; Immulon 2 wells coated with 25 µg/ml CXCL4 or CXCL4/CTF in PBS overnight at 4°C, blocked with 1% BSA in Walsh buffer; octylglucoside αvβ3 integrin added for 2 h at 37°C (legend: overnight at 4°C); bound integrin detected with polyclonal anti-αv cytoplasmic domain antibody, peroxidase anti-rabbit IgG and TMB; soluble RGD or RGE peptides or anti-integrin antibodies added to block; both purified

Substance: purified human integrin αvβ3 (octylglucoside αvβ3 integrin) (complex)
- binding: binds
